PubChem BioAssay AID1259254 | NCATS, 2017
Screen: 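Gene knock-downs that lead to re-replication, shown by excess G2 DNA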 (primary screen). Cell system: human HCT116 colorectal cancer cells. Knock-down reagent: single siRNA against human genes. Timing: 3 days. Detection: 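Imaged Hoechst DNA stain sorts each cell into a cycle phase by DNA amount; per plate, G2 fraction set to 0% for non-targeting and 100% for GMNN siRNA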. Scale: G2 robust z-score and G2 cells, % of GMNN control: higher = more G2 cells, more excess DNA replication. Hit rule: 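Active siRNAs have a G2 robust z of 5 or more median absolute deviations over the median, which in these data means about 38% or higher of GMNN control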.
The whole screen tested about 59,000 reagents; this is a part drawn at random. Over the whole deposit, about 1,550 (2.6%) got an active call. 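G2 share is only a proxy for re-replication; each gene was hit by three separate siRNAs, and active genes were retested.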 Reagents against one gene are numbered here. Further read-outs or replicates are left out here. The record does not give: the amount of reagent.

NLK #1 → G2 robust z-score = -0.0674; G2 cells, % of GMNN control = 2.49; Call = inactive
NLK #2 → G2 robust z-score = 0.218; G2 cells, % of GMNN control = 4.5; Call = inactive
NLK #3 → G2 robust z-score = 1.06; G2 cells, % of GMNN control = 10.4; Call = inactive
TMEM163 #1 → G2 robust z-score = -0.85; G2 cells, % of GMNN control = -3.01; Call = inactive
TMEM163 #2 → G2 robust z-score = -0.461; G2 cells, % of GMNN control = -0.275; Call = inactive
TMEM163 #3 → G2 robust z-score = 0.492; G2 cells, % of GMNN control = 6.43; Call = inactive
RAD51D #1 → G2 robust z-score = -0.29; G2 cells, % of GMNN control = 0.926; Call = inactive
RAD51D #2 → G2 robust z-score = -0.148; G2 cells, % of GMNN control = 1.93; Call = inactive
RAD51D #3 → G2 robust z-score = 2.29; G2 cells, % of GMNN control = 19.1; Call = inactive
UTS2 #1 → G2 robust z-score = 4.42; G2 cells, % of GMNN control = 34.1; Call = inactive
UTS2 #2 → G2 robust z-score = 2.33; G2 cells, % of GMNN control = 19.4; Call = inactive
UTS2 #3 → G2 robust z-score = -0.792; G2 cells, % of GMNN control = -2.6; Call = inactive
ALX1 #1 → G2 robust z-score = 5.41; G2 cells, % of GMNN control = 41; Call = active
ALX1 #2 → G2 robust z-score = -0.467; G2 cells, % of GMNN control = -0.32; Call = inactive
ALX1 #3 → G2 robust z-score = -0.792; G2 cells, % of GMNN control = -2.61; Call = inactive
TMEM92 #1 → G2 robust z-score = -0.346; G2 cells, % of GMNN control = 0.531; Call = inactive
TMEM92 #2 → G2 robust z-score = 0.867; G2 cells, % of GMNN control = 9.07; Call = inactive
TMEM92 #3 → G2 robust z-score = -0.45; G2 cells, % of GMNN control = -0.201; Call = inactive
ITGB1 #1 → G2 robust z-score = -0.866; G2 cells, % of GMNN control = -3.13; Call = inactive
ITGB1 #2 → G2 robust z-score = -1.17; G2 cells, % of GMNN control = -5.29; Call = inactive
ITGB1 #3 → G2 robust z-score = 1.63; G2 cells, % of GMNN control = 14.4; Call = inactive
SERPIND1 #1 → G2 robust z-score = 0.166; G2 cells, % of GMNN control = 4.13; Call = inactive
SERPIND1 #2 → G2 robust z-score = -0.573; G2 cells, % of GMNN control = -1.06; Call = inactive
SERPIND1 #3 → G2 robust z-score = -0.358; G2 cells, % of GMNN control = 0.447; Call = inactive
